PubChem BioAssay AID743454 – Peter MacCallum Cancer Centre | 2014
Test: 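Knock-downs lowering viability or raising caspase 3/7 activity in vorinostat-treated resistant cells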 (primary screen). Cell system: human HCT116-VR colon cancer cells, selected for vorinostat resistance. Reagent: siRNA pool against human genes, 40 nM siRNA pool. Time to read-out: vorinostat for 24 h, read-out about 72 h after transfection. Treatment: vorinostat at 2.5 µM final. Detection: 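Two measures, CellTiter-Fluor viability and luminescent caspase 3/7 activity, each as fold change against same-plate mock wells, mean of duplicates, then screen-wide robust z-score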. Direction: viability robust z-score: higher = more viable cells than screen typical; caspase robust z-score: higher = more caspase 3/7 activity than screen typical. Active means: 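a knock-down is a hit when classed RV1 or RV2 for lowered viability, or CA1 or CA2 for caspase activation; those lethal without drug were dropped; hits were retested singly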.
The deposit covers about 18,000 reagents; this is an unselected part. 450 of them (2.5%) count as active. 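Single biological run; no consistent viability z cut-off exists, so the class columns, not z-scores, define the calls.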 Unmarked entries are inactive.

target	viability hit class	caspase hit class	viability robust z-score	caspase robust z-score
TPSAB1	no change	no change	1.69	0.27
TMEM105	no change	no change	0.34	-0.1
TPD52L2	no change	no change	-1.27	3.57
ITIH6	no change	no change	0.02	-0.7
HTR1F	no change	no change	0.18	-0.44
HLA-DQB1	no change	no change	0.46	0.75
REM2	no change (active)	CA2 (caspase activation)	-1.35	5.96
CLOCK	no change	no change	-1.05	4
C2orf69	no change	no change	-0.96	-1.04
LYPD3	no change	no change	0.62	-0.06
SPRR4	no change	no change	0.64	-0.43
SEMA5B	no change	no change	-0.2	-1.18
PLEKHG2	no change	no change	0.53	0.12
FAT1	no change	no change	0.16	0.34
TMEM257 (retired record)	no change	no change	0.24	-0.53
FAM107B	no change	no change	-0.49	1.08
PGS1	no change	no change	0.5	0.5
SLC39A12	no change	no change	-0.15	0.88
EPHB1	no change	no change	1.01	0.44
CLEC2D	no change	no change	-1.21	1.77
RTKN	no change (active)	CA1 (caspase activation)	-1.19	5.64
TNFSF13B	no change	no change	-0.38	2.51
SPECC1L	no change	no change	-0.38	0.6
SLC26A8	no change	no change	-0.29	1.4
TXNL4A	no change	no change	-0.36	3.27
ILDR1	no change	no change	-0.36	0.4
MOB4	no change	no change	0.12	1.55
DPH2	no change	no change	0.94	-0.5
OR12D2	no change	no change	-0.02	-0.42
HAO1	no change	no change	-0.59	0.26
HADH	no change	no change	-0.38	0.42
WASHC3	no change	no change	-0.54	0.48
AKAP17A	no change	no change	-0.6	-0.22

The list goes on, starting with the last 3 of the part before.
target	viability hit class	caspase hit class	viability robust z-score	caspase robust z-score
HADH	no change	no change	-0.38	0.42
WASHC3	no change	no change	-0.54	0.48
AKAP17A	no change	no change	-0.6	-0.22
CXCR2	no change	no change	1.34	0.18
CEP152	no change	no change	-0.7	3.78
ACOT13	no change	no change	0.29	-0.84
HES6	no change	no change	1.08	1.04
IFT20	no change	no change	0	-0.22
AKR7A3	no change	no change	-1.45	2.44
DNAJC8	no change	no change	0.59	-0.26
SLC66A3	no change	no change	-1.4	-0.18
APOLD1	no change	no change	0.22	0.84
UBE2F	no change	no change	-1.96	1.68
LRRK1	no change	no change	1.17	-0.11
CFAP43	no change	no change	0.05	0.27
TMEM39B	no change	no change	-0.01	0.44
TRIOBP	no change	no change	-0.97	0.04
RB1	no change	no change	-0.19	0.05
IL10RA	no change	no change	1.9	0.12
DACH1	no change	no change	-0.15	-0.07
HILPDA	no change	no change	0.3	1.24
TRUB1	no change	no change	0.71	-0.49
DNAJC13	no change	no change	-0.78	0.86
DHCR7	no change	no change	0.85	-0.84
IL1RN	no change	no change	0.18	-0.32
NISCH	no change	no change	0.96	0.38
ZNF317	no change	no change	-1.46	1.19
